# From US20230002359A1, “PESTICIDALLY ACTIVE FUSED BICYCLIC HETEROAROMATIC COMPOUNDS” (priority 2019, published 2023)
# Some entries share one result that the patent states for a list of compounds. For part of these data: At least one structure is not confirmed: it was looked up by name or label, or the drawing left a doubt.
# What was measured:
# Assay type in all cases: in vivo
# [1] = tested on: Diabrotica Balteata (Corn Root Worm); test: Example B1: Diabrotica balteata (corn root worm), maize sprouts sprayed, L2 larvae; settings: application rate of 200 ppm, 4 days after infestation
# Method: Maize sprouts placed onto an agar layer in 24-well microtiter plates were treated with aqueous test solutions prepared from 10′000 ppm DMSO stock solutions by spraying. After drying, the plates were infested with L2 larvae (6 to 10 per well). The samples were assessed for mortality and growth inhibition in comparison to untreated samples 4 days after infestation.
# [2] = tested on: Chilo suppressalis (Striped Rice Stemborer); test: Example B3: Chilo suppressalis (striped rice stemborer), artificial diet, L2 larvae; settings: application rate of 200 ppm, 6 days after infestation
# Method: 24-well microtiter plates with artificial diet were treated with aqueous test solutions prepared from 10′000 ppm DMSO stock solutions by pipetting. After drying, the plates were infested with L2 larvae (6-8 per well). The samples were assessed for mortality, anti-feeding effect, and growth inhibition in comparison to untreated samples 6 days after infestation. Control of Chilo suppressalis by a test sample is given when at least one of the categories mortality, anti-feedant effect, and growth inhibition is higher than the untreated sample.
# [3] = tested on: Spodoptera littoralis (Egyptian Cotton Leaf Worm); test: Example B7: Spodoptera littoralis (Egyptian cotton leaf worm), cotton leaf discs sprayed, L1 larvae; settings: application rate of 200 ppm, 3 days after infestation
# Method: Cotton leaf discs were placed onto agar in 24-well microtiter plates and sprayed with aqueous test solutions prepared from 10′000 ppm DMSO stock solutions. After drying the leaf discs were infested with five L1 larvae. The samples were assessed for mortality, anti-feeding effect, and growth inhibition in comparison to untreated samples 3 days after infestation. Control of Spodoptera littoralis by a test sample is given when at least one of the categories mortality, anti-feedant effect, and growth inhibition is higher than the untreated sample.
# [4] = tested on: Plutella xylostella (Diamond Back Moth); test: Example B4: Plutella xylostella (diamond back moth), artificial diet, eggs, 24-well; settings: application rate of 200 ppm, 8 days after infestation
# Method: 24-well microtiter plates with artificial diet were treated with aqueous test solutions prepared from 10′000 ppm DMSO stock solutions by pipetting. After drying, Plutella eggs were pipetted through a plastic stencil onto a gel blotting paper and the plate was closed with it. The samples were assessed for mortality and growth inhibition in comparison to untreated samples 8 days after infestation.
# [5] = tested on: Plutella xylostella (Diamondback Moth); test: Example B9: Plutella xylostella (diamondback moth), artificial diet, eggs, 96-well; settings: application rate of 500 ppm; 9 days after infestation
# Method: 96-well microtiter plates containing artificial diet were treated with aqueous test solutions, prepared from 10′000 ppm DMSO stock solutions, by a liquid handling robot. After drying, eggs (˜30 per well) were infested onto a netted lid which was suspended above the diet. The eggs hatch and L1 larvae move down to the diet. The samples were assessed for mortality 9 days after infestation.
Compound,control in at least one of the two categories (mortality or growth inhibition) [1],"control in at least one of the three categories (mortality, anti-feedant effect, or growth inhibition) [2]","control in at least one of the three categories (mortality, anti-feedant effect, or growth inhibition) [3]",control in at least one of the two categories (mortality or growth inhibition) [4],control in mortality [5]
"Cc1nc(N(C)C(C)c2ncnn2-c2ccc(C#N)cn2)c2cc(C(F)(F)F)cc(C(F)(F)F)c2n1 (stereo not drawn) [P.15, 6-[5-[1-[methyl-[2-methyl-6,8-bis(trifluoromethyl)quina-zolin-4-yl]amino]ethyl]-1,2,4-triazol-1-yl]pyridine-3-carbonitrile]",at least 80%,at least 80%,at least 80%,at least 80%,–
"N-[1-(3-pyrimidin-2- ylpyrazin-2-yl)ethyl]-6,8- bis(trifluromethyl)quina- zolin-4-amine [P.106]",–,–,at least 80%,–,–
"N-[1-[3-(triazol-1- yl)pyrazin-2-yl]ethyl]- 6,8- bis(trifluoromethyl)quina- zolin-4-amine [P.55]",–,–,–,–,at least 80%
